Measurements reported in PubChem BioAssay AID493246 (Drosophila RNAi Screening Center, 2011).
Aim: 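Genes fly cells need to grow and stay alive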 (primary screen). System: Drosophila Kc and S2R+ cells. Knock-down reagent: long dsRNA against Drosophila genes. Measurement: 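Raw, unnormalised count of remaining cells in each well; per-plate z-scores of cell number underlie the calls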. Direction: Kc cell number and S2R+ cell number: higher = more cells remaining. Active means: 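Counted as a hit if cell number falls by a z-score of at least 3 within its plate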.
The deposit covers about 21,000 reagents; below is a random part of those with a known target gene and a result. Over the whole deposit, 429 (2%) are marked active. 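Values are raw and not normalised between plates; calls rest on per-plate z-scores that were not deposited.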 Entries without a mark were called inactive. A plus sign joins genes that one reagent is predicted to hit. Reagent sequences are not shown. Not stated in the record: the amount of reagent, the time to read-out.

gene	DRSC id	Kc cell number, rep 1	Kc cell number, rep 2	S2R+ cell number, rep 1	S2R+ cell number, rep 2
COX7C	DRSC06831	1.29e6	1.28e6	9.09e5	1.02e6
CG9427	DRSC16490	1.74e6	1.84e6	1.28e6	1.39e6
mthl6	DRSC10234	1.26e6	1.20e6	1.08e6	1.16e6
CG14631	DRSC17792	1.46e6	1.49e6	1.04e6	1.16e6
CG14631	DRSC17941	1.51e6	1.48e6	1.06e6	1.14e6
CG3600 (retired record)	DRSC18599	1.48e6	1.49e6	1.00e6	1.05e6
Pig1	DRSC18698	1.70e6	1.72e6	9.08e5	9.89e5
Lcp65Ad	DRSC11211	1.49e6	1.55e6	1.07e6	1.20e6
Tsc1	DRSC16890	1.52e6	1.56e6	1.12e6	1.15e6
CG15084	DRSC06515	1.52e6	1.51e6	1.11e6	1.21e6
p130CAS + Dic61B	DRSC08588	1.33e6	1.45e6	1.05e6	9.86e5
slpr	DRSC18225	5.50e5		8.45e5	
CG33109	DRSC16533	1.42e6	1.25e6	1.05e6	1.07e6
CG14624	DRSC18634	1.44e6	1.49e6	1.05e6	1.16e6
Su(z)12	DRSC11293	1.28e6	1.35e6	1.28e6	1.39e6
fwd	DRSC08580	1.55e6	1.54e6	1.17e6	1.29e6
sit	DRSC15760	1.63e6	1.62e6	9.87e5	1.15e6
alpha-Est4	DRSC12616	1.46e6	1.57e6	1.29e6	1.43e6
CG42324	DRSC08431	1.41e6	1.26e6	9.30e5	1.14e6
CG42324	DRSC08432	1.41e6	1.27e6	9.73e5	1.09e6
CG8405	DRSC05599	5.02e5		7.44e5	
CG8405	DRSC07166	1.54e6	1.55e6	1.16e6	1.29e6
Arv1	DRSC11491	1.42e6	1.52e6	1.15e6	1.31e6
RanBPM	DRSC06079	1.35e6	1.44e6	1.06e6	1.04e6
mthl7	DRSC10852	1.68e6	1.50e6	1.26e6	1.23e6
Hmx	DRSC15884	1.35e6	1.48e6	1.36e6	1.53e6
Hmx	DRSC16706	1.57e6	1.64e6	9.31e5	9.63e5
CG10958	DRSC17768	5.90e5		8.68e5	
CG1116	DRSC12166	1.68e6	1.87e6	1.26e6	1.35e6
dia	DRSC03519	1.48e6	1.56e6	1.25e6	3.50e5

Only “S2R+ cell number, rep 1” (5 entries from above):
CG15084 [DRSC06515]	1.11e6
p130CAS + Dic61B [DRSC08588]	1.05e6
slpr [DRSC18225]	8.45e5
CG33109 [DRSC16533]	1.05e6
CG14624 [DRSC18634]	1.05e6

Additional records follow:
gene	DRSC id	Kc cell number, rep 1	Kc cell number, rep 2	S2R+ cell number, rep 1	S2R+ cell number, rep 2
Cpr65Ay	DRSC08796	1.59e6	1.57e6	1.01e6	1.24e6
csul	DRSC07599	1.48e6	1.59e6	1.16e6	1.27e6
CG11454	DRSC00310	1.29e6	1.26e6	5.45e5	5.93e5
CG42525	DRSC08026	1.39e6	1.32e6	9.97e5	1.09e6
ddbt	DRSC07869	1.48e6	1.42e6	9.86e5	1.14e6
Ubqn	DRSC19581	1.64e6	1.67e6	1.04e6	1.18e6
jus	DRSC14861	1.27e6	1.28e6	7.00e5	7.55e5
jus	DRSC14862	1.45e6	1.50e6	1.02e6	1.14e6
CG6168	DRSC10596	1.45e6	1.36e6	1.41e6	1.47e6
CG14830	DRSC08876	1.79e6	1.76e6	1.25e6	1.40e6
CG14830	DRSC10200	1.49e6	1.38e6	1.02e6	1.16e6
CkIIalpha-i1	DRSC11115	1.34e6	1.46e6	1.24e6	1.34e6
dgt5	DRSC07280	1.45e6	1.48e6	1.09e6	1.14e6
Pi3K68D	DRSC11253	1.43e6	1.51e6	1.21e6	1.19e6
CG16798	DRSC02517	1.60e6	1.68e6	1.21e6	3.09e5
CG17650	DRSC00510	1.50e6	1.52e6	1.12e6	1.32e6
CG33012	DRSC06287	1.63e6	1.66e6	1.38e6	1.46e6
CG33012	DRSC06288	1.67e6	1.72e6	1.44e6	1.50e6
Ptp10D	DRSC20272	1.54e6	1.45e6	1.03e6	1.04e6
Uba3	DRSC06377	1.28e6	1.36e6	1.05e6	1.13e6
CG17027	DRSC10238	1.72e6	1.66e6	1.45e6	1.43e6
Megf8	DRSC03058	1.35e6	1.33e6	7.29e5	9.79e5
CG13476	DRSC10019	1.39e6	1.59e6	1.23e6	1.28e6
CG9993	DRSC04599	1.56e6	1.68e6	1.24e6	4.54e5
coil	DRSC07242	1.31e6	1.34e6	1.14e6	1.21e6
P5cr-2	DRSC15889	1.20e6	1.26e6	1.21e6	1.39e6
CG9662	DRSC00723	1.72e6	1.76e6	1.25e6	1.39e6
CG31300	DRSC14657	1.78e6	1.65e6	1.05e6	1.16e6
Rab3-GAP	DRSC02001	1.34e6	1.44e6	1.24e6	1.29e6
